Results from doi:10.1101/2024.09.24.614577 (bioRxiv, 2024).
Like-named read-outs stand apart in the source and are kept apart here. Results are given in words; binding and its absence hold for the method and conditions named. Some results given as binding are weak or reduced against the parent protein; the word gives no strength. Sequences can lack the tags named with a protein.

Experiments:
Assay in all cases: SEC
[1] = target: human GPR155 (residues 1-870) with C-terminal eGFP and Strep-tag (human) (UniProt Q7Z3F1)
[2] = target: human GPR155 (residues 1-870) with C-terminal eGFP and Strep-tag (human) (UniProt Q7Z3F1); remark: listed apart in the source
[3] = target: human GPR155 (residues 1-870), construct without the eGFP tag (human) (UniProt Q7Z3F1)

binding [1]	binding [2]	binding [3]	Binder
binds weakly	binds	–	human GPR155 (residues 1-870) with C-terminal eGFP and Strep-tag (receptor, UniProt Q7Z3F1 1-870) MNSNLPAENLTIAVNMTKTLPTAVTHGFNSTNDPPSMSITRLFPALLECFGIVLCGYIAGRANVITSTQAKGLGNFVSRFALPALLFKNMVVLNFSNVDWSFLYSILIAKASVFFIVCVLTLLVASPDSRFSKAGLFPIFATQSNDFALGYPIVEALYQTTYPEYLQYIYLVAPISLMMLNPIGFIFCEIQKWKDTQNASQNKIKIVGLGLLRVLQNPIVFMVFIGIAFNFILDRKVPVYVENFLDGLGNSFSGSALFYLGLTMVGKIKRLKKSAFVVLILLITAKLLVLPLLCREMVELLDKGDSVVNHTSLSNYAFLYGVFPVAPGVAIFATQFNMEVEIITSGMVISTFVSAPIMYVSAWLLTFPTMDPKPLAYAIQNVSFDISIVSLISLIWSLAILLLSKKYKQLPHMLTTNLLIAQSIVCAGMMIWNFVKEKNFVGQILVFVLLYSSLYSTYLWTGLLAISLFLLKKRERVQIPVGIIIISGWGIPALLVGVLLITGKHNGDSIDSAFFYGKEQMITTAVTLFCSILIAGISLMCMNQTAQAGSYEGFDQSQSHKVVEPGNTAFEESPAPVNEPELFTSSIPETSCCSCSMGNGELHCPSIEPIANTSTSEPVIPSFEKNNHCVSRCNSQSCILAQEEEQYLQSGDQQLTRHVLLCLLLIIGLFANLSSCLWWLFNQEPGRLYVELQFFCAVFNFGQGFISFGIFGLDKHLIILPFKRRLEFLWNNKDTAENRDSPVSEEIKMTCQQFIHYHRDLCIRNIVKERRCGAKTSAGTFCGCDLVSWLIEVGLASDRGEAVIYGDRLVQGGVIQHITNEYEFRDEYLFYRFLQKSPEQSPPAINANTLQQERYKEIEHSSPPSHSPKT
–	–	binds weakly	human GPR155 (residues 1-870), construct without the eGFP tag (receptor, UniProt Q7Z3F1 1-870, looked up) MNSNLPAENLTIAVNMTKTLPTAVTHGFNSTNDPPSMSITRLFPALLECFGIVLCGYIAGRANVITSTQAKGLGNFVSRFALPALLFKNMVVLNFSNVDWSFLYSILIAKASVFFIVCVLTLLVASPDSRFSKAGLFPIFATQSNDFALGYPIVEALYQTTYPEYLQYIYLVAPISLMMLNPIGFIFCEIQKWKDTQNASQNKIKIVGLGLLRVLQNPIVFMVFIGIAFNFILDRKVPVYVENFLDGLGNSFSGSALFYLGLTMVGKIKRLKKSAFVVLILLITAKLLVLPLLCREMVELLDKGDSVVNHTSLSNYAFLYGVFPVAPGVAIFATQFNMEVEIITSGMVISTFVSAPIMYVSAWLLTFPTMDPKPLAYAIQNVSFDISIVSLISLIWSLAILLLSKKYKQLPHMLTTNLLIAQSIVCAGMMIWNFVKEKNFVGQILVFVLLYSSLYSTYLWTGLLAISLFLLKKRERVQIPVGIIIISGWGIPALLVGVLLITGKHNGDSIDSAFFYGKEQMITTAVTLFCSILIAGISLMCMNQTAQAGSYEGFDQSQSHKVVEPGNTAFEESPAPVNEPELFTSSIPETSCCSCSMGNGELHCPSIEPIANTSTSEPVIPSFEKNNHCVSRCNSQSCILAQEEEQYLQSGDQQLTRHVLLCLLLIIGLFANLSSCLWWLFNQEPGRLYVELQFFCAVFNFGQGFISFGIFGLDKHLIILPFKRRLEFLWNNKDTAENRDSPVSEEIKMTCQQFIHYHRDLCIRNIVKERRCGAKTSAGTFCGCDLVSWLIEVGLASDRGEAVIYGDRLVQGGVIQHITNEYEFRDEYLFYRFLQKSPEQSPPAINANTLQQERYKEIEHSSPPSHSPKT
